Assay results published in publication PMC7946643.
Like-named read-outs stand apart in the source and are kept apart here. Results are given in words; binding and its absence hold for the method and conditions named. In cells and extracts the contact can be indirect. A yes stands for co-enrichment or nearness to the bait. Other partners may have been found.

By UniProt entry, the sequences of proteins in these tests, tags left out. Where a name states a change or a piece, a line headed by the entry shows the natural chain unless it says otherwise.
UniProt Q96RD7: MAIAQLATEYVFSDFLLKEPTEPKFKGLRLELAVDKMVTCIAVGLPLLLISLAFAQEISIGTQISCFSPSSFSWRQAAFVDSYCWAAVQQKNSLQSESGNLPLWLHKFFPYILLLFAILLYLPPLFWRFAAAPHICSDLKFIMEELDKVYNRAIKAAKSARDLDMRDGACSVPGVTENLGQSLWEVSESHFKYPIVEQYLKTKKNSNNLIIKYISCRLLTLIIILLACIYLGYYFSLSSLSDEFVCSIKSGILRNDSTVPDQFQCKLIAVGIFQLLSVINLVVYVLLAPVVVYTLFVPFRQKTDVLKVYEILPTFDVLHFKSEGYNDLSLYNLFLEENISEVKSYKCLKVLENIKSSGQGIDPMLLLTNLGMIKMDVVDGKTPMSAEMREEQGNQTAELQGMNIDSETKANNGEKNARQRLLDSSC
UniProt P35579: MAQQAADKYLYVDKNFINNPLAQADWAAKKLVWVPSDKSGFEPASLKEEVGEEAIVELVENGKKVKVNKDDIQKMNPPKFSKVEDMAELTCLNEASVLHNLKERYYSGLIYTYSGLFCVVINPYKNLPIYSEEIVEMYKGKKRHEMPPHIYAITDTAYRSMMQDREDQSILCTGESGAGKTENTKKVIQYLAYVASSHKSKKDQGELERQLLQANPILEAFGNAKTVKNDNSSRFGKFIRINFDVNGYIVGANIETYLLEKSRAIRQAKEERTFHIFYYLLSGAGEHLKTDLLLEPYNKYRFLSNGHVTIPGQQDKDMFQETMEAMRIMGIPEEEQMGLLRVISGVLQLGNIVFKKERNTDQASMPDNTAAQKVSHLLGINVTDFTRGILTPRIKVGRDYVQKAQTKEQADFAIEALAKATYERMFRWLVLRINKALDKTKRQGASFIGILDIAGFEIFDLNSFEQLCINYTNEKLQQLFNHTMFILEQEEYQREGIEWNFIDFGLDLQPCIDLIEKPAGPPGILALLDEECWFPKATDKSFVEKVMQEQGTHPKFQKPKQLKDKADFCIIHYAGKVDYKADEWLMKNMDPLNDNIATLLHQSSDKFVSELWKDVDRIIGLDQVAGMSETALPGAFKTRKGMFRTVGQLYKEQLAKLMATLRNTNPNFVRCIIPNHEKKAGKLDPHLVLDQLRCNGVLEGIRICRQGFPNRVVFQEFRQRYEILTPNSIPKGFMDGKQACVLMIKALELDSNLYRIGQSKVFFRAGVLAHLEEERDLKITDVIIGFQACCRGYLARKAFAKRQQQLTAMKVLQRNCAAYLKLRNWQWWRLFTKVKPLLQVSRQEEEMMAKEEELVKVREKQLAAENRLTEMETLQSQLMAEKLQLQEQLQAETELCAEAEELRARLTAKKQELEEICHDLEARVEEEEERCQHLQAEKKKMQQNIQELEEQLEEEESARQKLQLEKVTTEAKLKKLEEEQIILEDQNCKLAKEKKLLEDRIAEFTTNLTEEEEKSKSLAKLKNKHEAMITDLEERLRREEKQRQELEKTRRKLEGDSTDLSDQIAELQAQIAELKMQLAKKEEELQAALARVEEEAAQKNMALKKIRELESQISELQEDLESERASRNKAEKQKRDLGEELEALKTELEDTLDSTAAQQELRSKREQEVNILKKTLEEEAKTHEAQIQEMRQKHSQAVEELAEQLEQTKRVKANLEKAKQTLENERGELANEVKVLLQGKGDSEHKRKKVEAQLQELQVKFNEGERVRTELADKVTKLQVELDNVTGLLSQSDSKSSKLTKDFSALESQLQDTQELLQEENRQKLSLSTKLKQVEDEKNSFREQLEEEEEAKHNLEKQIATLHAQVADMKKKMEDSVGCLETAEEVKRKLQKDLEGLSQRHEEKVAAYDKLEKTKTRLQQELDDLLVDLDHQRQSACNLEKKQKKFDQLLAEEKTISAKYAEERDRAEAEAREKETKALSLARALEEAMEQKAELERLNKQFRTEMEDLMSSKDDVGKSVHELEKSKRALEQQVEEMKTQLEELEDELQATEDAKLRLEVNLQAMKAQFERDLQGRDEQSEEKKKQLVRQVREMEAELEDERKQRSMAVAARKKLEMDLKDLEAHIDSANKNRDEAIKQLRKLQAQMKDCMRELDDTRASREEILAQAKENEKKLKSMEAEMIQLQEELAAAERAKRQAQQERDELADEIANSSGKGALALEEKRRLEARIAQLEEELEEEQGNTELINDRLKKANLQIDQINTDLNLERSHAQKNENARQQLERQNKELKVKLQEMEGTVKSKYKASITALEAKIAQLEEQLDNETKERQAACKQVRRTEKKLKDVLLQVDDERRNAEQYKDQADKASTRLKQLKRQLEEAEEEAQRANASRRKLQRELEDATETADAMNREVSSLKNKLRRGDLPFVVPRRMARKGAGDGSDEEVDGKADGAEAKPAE
UniProt P07355: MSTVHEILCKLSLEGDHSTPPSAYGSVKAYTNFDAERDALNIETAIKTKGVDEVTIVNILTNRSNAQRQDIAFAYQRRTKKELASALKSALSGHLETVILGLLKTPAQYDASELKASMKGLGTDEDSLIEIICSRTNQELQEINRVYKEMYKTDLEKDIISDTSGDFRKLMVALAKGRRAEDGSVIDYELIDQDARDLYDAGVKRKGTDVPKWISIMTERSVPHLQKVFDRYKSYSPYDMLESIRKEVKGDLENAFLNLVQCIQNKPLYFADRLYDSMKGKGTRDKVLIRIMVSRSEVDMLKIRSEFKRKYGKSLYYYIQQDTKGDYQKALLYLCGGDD
UniProt P46939: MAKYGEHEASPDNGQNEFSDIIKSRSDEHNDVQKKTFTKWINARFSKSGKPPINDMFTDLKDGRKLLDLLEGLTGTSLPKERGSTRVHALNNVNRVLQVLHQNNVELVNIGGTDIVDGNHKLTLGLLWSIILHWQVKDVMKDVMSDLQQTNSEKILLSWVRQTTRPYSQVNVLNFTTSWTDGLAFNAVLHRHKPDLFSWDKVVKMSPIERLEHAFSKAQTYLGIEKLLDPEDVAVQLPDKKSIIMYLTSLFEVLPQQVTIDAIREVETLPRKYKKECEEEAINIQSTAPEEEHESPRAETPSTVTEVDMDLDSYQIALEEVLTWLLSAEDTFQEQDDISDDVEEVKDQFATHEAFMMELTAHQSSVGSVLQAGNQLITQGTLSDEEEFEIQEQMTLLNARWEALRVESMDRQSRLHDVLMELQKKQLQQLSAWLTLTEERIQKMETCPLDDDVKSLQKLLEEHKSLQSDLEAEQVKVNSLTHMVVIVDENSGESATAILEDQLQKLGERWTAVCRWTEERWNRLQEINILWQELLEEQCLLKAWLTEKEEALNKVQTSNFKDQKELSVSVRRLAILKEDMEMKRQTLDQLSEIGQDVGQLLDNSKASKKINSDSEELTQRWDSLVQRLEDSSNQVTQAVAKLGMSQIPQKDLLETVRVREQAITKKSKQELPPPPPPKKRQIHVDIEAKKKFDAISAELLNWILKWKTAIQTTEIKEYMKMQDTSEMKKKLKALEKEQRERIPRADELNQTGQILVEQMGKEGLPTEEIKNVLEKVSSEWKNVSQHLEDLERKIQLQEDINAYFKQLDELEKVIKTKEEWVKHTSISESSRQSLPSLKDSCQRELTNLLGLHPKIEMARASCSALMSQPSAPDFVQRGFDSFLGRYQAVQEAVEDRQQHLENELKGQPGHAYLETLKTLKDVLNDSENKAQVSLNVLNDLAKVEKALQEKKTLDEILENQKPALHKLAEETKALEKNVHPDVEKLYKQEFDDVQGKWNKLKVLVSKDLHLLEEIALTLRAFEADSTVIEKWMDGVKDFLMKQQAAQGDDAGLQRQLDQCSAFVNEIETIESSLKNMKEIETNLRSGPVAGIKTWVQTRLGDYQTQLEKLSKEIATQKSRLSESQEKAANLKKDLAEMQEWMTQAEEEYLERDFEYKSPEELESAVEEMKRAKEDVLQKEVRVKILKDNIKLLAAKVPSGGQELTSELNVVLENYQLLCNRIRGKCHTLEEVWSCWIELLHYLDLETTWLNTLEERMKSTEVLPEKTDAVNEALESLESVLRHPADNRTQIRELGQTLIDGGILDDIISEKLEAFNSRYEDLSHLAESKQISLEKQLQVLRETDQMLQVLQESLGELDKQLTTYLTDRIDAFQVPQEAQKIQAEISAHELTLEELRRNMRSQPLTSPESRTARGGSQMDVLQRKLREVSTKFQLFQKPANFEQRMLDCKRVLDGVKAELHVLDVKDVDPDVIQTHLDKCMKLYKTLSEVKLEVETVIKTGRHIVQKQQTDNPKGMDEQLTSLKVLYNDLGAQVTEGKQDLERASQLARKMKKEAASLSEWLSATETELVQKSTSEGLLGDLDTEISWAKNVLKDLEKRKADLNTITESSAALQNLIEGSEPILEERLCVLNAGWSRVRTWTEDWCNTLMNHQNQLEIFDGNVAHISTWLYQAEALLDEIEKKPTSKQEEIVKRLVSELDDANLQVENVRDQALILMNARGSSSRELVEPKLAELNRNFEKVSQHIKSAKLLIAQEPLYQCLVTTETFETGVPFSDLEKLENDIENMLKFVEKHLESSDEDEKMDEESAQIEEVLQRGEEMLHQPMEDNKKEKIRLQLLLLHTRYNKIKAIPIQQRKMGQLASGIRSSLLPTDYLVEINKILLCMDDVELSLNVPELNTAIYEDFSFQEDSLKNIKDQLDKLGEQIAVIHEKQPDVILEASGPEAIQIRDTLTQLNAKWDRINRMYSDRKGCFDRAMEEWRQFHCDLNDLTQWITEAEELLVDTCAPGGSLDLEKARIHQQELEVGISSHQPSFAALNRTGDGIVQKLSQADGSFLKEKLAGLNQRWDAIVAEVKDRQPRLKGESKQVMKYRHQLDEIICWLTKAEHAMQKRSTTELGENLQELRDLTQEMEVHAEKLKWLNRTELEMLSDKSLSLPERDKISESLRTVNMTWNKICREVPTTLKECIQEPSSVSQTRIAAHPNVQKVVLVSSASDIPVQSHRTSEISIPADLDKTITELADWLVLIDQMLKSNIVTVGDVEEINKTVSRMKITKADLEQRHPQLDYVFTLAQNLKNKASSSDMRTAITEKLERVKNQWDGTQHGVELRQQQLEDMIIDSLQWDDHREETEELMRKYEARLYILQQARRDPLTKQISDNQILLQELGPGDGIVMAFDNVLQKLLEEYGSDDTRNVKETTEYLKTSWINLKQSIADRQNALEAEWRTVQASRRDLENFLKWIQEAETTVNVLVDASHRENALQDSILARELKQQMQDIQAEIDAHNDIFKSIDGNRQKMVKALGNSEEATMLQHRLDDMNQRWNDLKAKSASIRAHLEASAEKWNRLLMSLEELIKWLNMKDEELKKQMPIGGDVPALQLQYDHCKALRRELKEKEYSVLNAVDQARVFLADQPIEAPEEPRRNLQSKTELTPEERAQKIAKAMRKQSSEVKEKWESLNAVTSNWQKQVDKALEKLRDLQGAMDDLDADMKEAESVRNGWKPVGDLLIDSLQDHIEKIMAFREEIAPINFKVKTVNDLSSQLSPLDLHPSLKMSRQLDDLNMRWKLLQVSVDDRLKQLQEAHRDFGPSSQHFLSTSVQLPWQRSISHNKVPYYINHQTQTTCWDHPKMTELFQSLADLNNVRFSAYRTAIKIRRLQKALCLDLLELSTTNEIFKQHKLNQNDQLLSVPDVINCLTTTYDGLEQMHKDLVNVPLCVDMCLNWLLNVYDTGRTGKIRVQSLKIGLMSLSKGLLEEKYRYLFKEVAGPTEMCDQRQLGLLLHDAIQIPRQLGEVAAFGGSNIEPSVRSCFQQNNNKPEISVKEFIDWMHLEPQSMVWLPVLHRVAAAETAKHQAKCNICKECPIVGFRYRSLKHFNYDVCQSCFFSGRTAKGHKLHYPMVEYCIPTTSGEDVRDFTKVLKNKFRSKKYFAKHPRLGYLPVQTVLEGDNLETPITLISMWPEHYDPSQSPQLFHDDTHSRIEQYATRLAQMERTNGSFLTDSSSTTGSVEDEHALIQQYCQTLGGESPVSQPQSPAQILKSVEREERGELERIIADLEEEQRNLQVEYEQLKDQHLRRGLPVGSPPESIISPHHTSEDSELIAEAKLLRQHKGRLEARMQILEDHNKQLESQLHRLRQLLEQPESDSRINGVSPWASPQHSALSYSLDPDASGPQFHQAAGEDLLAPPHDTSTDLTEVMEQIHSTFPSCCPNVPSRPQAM

What was measured:
Myc-PANX1 = Myc-PANX1 (UniProt Q96RD7); experiment: affinity purification with mass spectrometry; Myc-PANX1-enriched sucrose-gradient fractions of stable Rh18 and Rh30 cells pooled, buffer exchanged for IP lysis buffer (150 mM NaCl, 10 mM Tris-HCl pH 7.4, 1 mM EDTA, 0.5% NP-40, 1% Triton X-100), co-IP with anti-Myc antibodies, HPLC-ESI-MS/MS; GFP control fractions as background
PANX1-BirA*(R118G)-HA [1] = target: PANX1-BirA*(R118G)-HA (UniProt Q96RD7); experiment: proximity labelling; BioID: BirA*-PANX1 induced with cumate in stable Rh18 and Rh30 cells, biotin for 24 h, biotinylated proteins captured on streptavidin beads, digested on-bead, HPLC-ESI-MS/MS; Myc-PANX1 as background control
PANX1-BirA*(R118G)-HA [2] = target: PANX1-BirA*(R118G)-HA (UniProt Q96RD7); experiment: as above; remark: listed apart in the source

With MYH9 (from UniProt P35579 1-1960) the binding (Myc-PANX1) was “binds” and the binding (PANX1-BirA*(R118G)-HA [1]) was “binds”.

For Annexin A2 (from UniProt P07355 1-339), the binding (PANX1-BirA*(R118G)-HA [1]) was “binds”.

AHNAK (from UniProt Q09666 1-5890) was tested, and the binding (Myc-PANX1) was “binds” and the binding (PANX1-BirA*(R118G)-HA [1]) was “binds”.

For UTRN (from UniProt P46939 1-3433), the binding (Myc-PANX1) was “binds” and the binding (PANX1-BirA*(R118G)-HA [1]) was “binds”.

B1: septin-9 (protein, UniProt Q9UHD8 1-586)
chain: MKKSYSGGTRTSSGRLRRLGDSSGPALKRSFEVEEVETPNSTPPRRVQTPLLRATVASSTQKFQDLGVKNSEPSARHVDSLSQRSPKASLRRVELSGPKAAEPVSRRTELSIDISSKQVENAGAIGPSRFGLKRAEVLGHKTPEPAPRRTEITIVKPQESAHRRMEPPASKVPEVPTAPATDAAPKRVEIQMPKPAEAPTAPSPAQTLENSEPAPVSQLQSRLEPKPQPPVAEATPRSQEATEAAPSCVGDMADTPRDAGLKQAPASRNEKAPVDFGYVGIDSILEQMRRKAMKQGFEFNIMVVGQSGLGKSTLINTLFKSKISRKSVQPTSEERIPKTIEIKSITHDIEEKGVRMKLTVIDTPGFGDHINNENCWQPIMKFINDQYEKYLQEEVNINRKKRIPDTRVHCCLYFIPATGHSLRPLDIEFMKRLSKVVNIVPVIAKADTLTLEERVHFKQRITADLLSNGIDVYPQKEFDEDSEDRLVNEKFREMIPFAVVGSDHEYQVNGKRILGRKTKWGTIEVENTTHCEFAYLRDLLIRTHMQNIKDITSSIHFEAYRVKRLNEGSSAMANGMEEKEPEAPEM
B1 was tested, and the binding (PANX1-BirA*(R118G)-HA [2]) was “binds”.
